Measurements reported in paper PMC5312319.
These are yes or no findings as the source states them, for the method shown. Binding seen in cells or lysates may run through a third protein. Binding can be weak; no strength is given. Tags and fused reporters may be left off the sequences shown.

Target: HA-AKT
Assay: co-IP; HA-AKT and Flag-HDAC10 overexpressed in 293T cells; IP with anti-HA beads, blots with anti-AKT and anti-HDAC10; with or without treatment of the cells with Bufexamac (interaction reduced)

- binding: binds
B1: Flag-HDAC10 (protein, UniProt Q969S8 1-669)
chain: MGTALVYHEDMTATRLLWDDPECEIERPERLTAALDRLRQRGLEQRCLRLSAREASEEELGLVHSPEYVSLVRETQVLGKEELQALSGQFDAIYFHPSTFHCARLAAGAGLQLVDAVLTGAVQNGLALVRPPGHHGQRAAANGFCVFNNVAIAAAHAKQKHGLHRILVVDWDVHHGQGIQYLFEDDPSVLYFSWHRYEHGRFWPFLRESDADAVGRGQGLGFTVNLPWNQVGMGNADYVAAFLHLLLPLAFEFDPELVLVSAGFDSAIGDPEGQMQATPECFAHLTQLLQVLAGGRVCAVLEGGYHLESLAESVCMTVQTLLGDPAPPLSGPMAPCQSALESIQSARAAQAPHWKSLQQQDVTAVPMSPSSHSPEGRPPPLLPGGPVCKAAASAPSSLLDQPCLCPAPSVRTAVALTTPDITLVLPPDVIQQEASALREETEAWARPHESLAREEALTALGKLLYLLDGMLDGQVNSGIAATPASAAAATLDVAVRRGLSHGAQRLLCVALGQLDRPPDLAHDGRSLWLNIRGKEAAALSMFHVSTPLPVMTGGFLSCILGLVLPLAYGFQPDLVLVALGPGHGLQGPHAALLAAMLRGLAGGRVLALLEENSTPQLAGILARVLNGEAPPSLGPSSVASPEDVQALMYLRGQLEPQWKMLQCHPHLVA
